Assay results reported in the supplement of paper PMC8256030.
“And” between values parts separate entries of the source, which are not always exact repeats. Equal entries are not always repeated. Structures can show the parent of a compound that is named as a salt. The list shows a part of the results. Single values are uncertain here, since repeats match poorly.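 HEK293T cells were given each compound shortly before transfection with a reporter in which red mCherry is followed by the SARS-CoV-2 frameshift element and then GFP in the −1 frame, so GFP appears only after frameshifting.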

Tests used:
[1] = tested on: SARS-CoV-2 -1 PRF reporter mCherry-FSE-GFP(-1); experiment: mCherry (red) intensity as percent of control; higher = higher upstream reporter expression; settings: 10 µM; 24 h; HEK293T
[2] = tested on: SARS-CoV-2 -1 PRF reporter mCherry-FSE-GFP(-1); experiment: percent effect, decrease of GFP/mCherry ratio (-1 PRF reporter) relative to controls; higher = stronger frameshift inhibition; settings: 10 µM; 24 h; HEK293T

**Q.** For `C#C[C@]1(O)CC[C@H]2[C@@H]3CCC4=CC(=NO)CC[C@@H]4[C@H]3CC[C@@]21CC` (mixture of isomers) [norelgestromin], which mCherry [1] is on record?
**A.** 76.3%

**Q.** What about the percent effect [2] of the same compound?
**A.** 4.08%

**Q.** For `Cc1cc2nc3c(=O)[nH]c(=O)nc-3n(C[C@H](O)[C@H](O)[C@H](O)COP(=O)(O)O)c2cc1C`, which mCherry [1] is on record?
**A.** 86.3%

**Q.** And the percent effect [2]?
**A.** -3.47%

**Q.** Which mCherry [1] does the source give for `C=CCNC(N)=S` [allylthiourea] here?
**A.** 108%

**Q.** And the percent effect [2]?
**A.** 0.0139%

**Q.** What does the source list for `NCCS(=O)(=O)O` [taurine]?
**A.** mCherry [1]: 86.1%; percent effect [2]: -1.92%

**Q.** How did the mCherry [1] turn out when `CC1(C)[C@@H](OC(=O)CCC(=O)O)CC[C@]2(C)[C@H]3C(=O)C=C4[C@@H]5C[C@@](C)(C(=O)O)CC[C@]5(C)CC[C@@]4(C)[C@]3(C)CC[C@@H]12` [carbenoxolone] was run?
**A.** 116%

**Q.** What about the percent effect [2] of the same compound?
**A.** -2.24%

**Q.** How did the mCherry [1] turn out when `COc1ccc(C2C(=O)c3ccccc3C2=O)cc1` [anisindione] was run?
**A.** 107%

**Q.** And the percent effect [2]?
**A.** -13.5%

**Q.** Which mCherry [1] does the source give for `CN(C)C[C@@H]1CCn2cc(c3ccccc32)C2=C(C(=O)NC2=O)c2cn(c3ccccc23)CCO1` here?
**A.** 96%

**Q.** And the percent effect [2]?
**A.** -0.0576%

**Q.** How did the mCherry [1] turn out when `CC(C(=O)O)c1ccc2c(c1)Cc1cccnc1O2` (stereo not drawn) [pranoprofen] was run?
**A.** 128% and 135%

**Q.** And the percent effect [2]?
**A.** 4.53% and 4.09%

**Q.** Which results are given for `CN(C)c1cc(NC(=O)CNC(C)(C)C)c(O)c2c1C[C@H]1C[C@H]3[C@H](N(C)C)C(=O)C(C(N)=O)=C(O)[C@@]3(O)C(=O)C1=C2O` [tigecycline]?
**A.** mCherry [1]: 131%; percent effect [2]: 3.47%

**Q.** Which results are given for `CN1CCCN=C1/C=C/c1cccs1` [Pyrantel Pamoate]?
**A.** mCherry [1]: 90.8%; percent effect [2]: -2.89%

**Q.** With `CCCn1c(=O)c2nc(C34CC5CC(CC3C5)C4)[nH]c2n(CCC)c1=O` [rolofylline] as the compound, how does the mCherry [1] read?
**A.** 83%

**Q.** What about the percent effect [2] of the same compound?
**A.** -16.5%

**Q.** With `O=[N+]([O-])c1ccc(/C=C/c2cccc(CO)n2)o1` [nifurpirinol] as the compound, how does the mCherry [1] read?
**A.** 80.9%

**Q.** What about the percent effect [2] of the same compound?
**A.** -3.52%

**Q.** How did the mCherry [1] turn out when `CN1CCN(c2c(F)cc3c(=O)c(C(=O)O)cn4c3c2SCC4)CC1` [rufloxacin] was run?
**A.** 118% and 110%

**Q.** And the percent effect [2]?
**A.** 0.358% and 4.74%

**Q.** With `CN1C(C)(C)CCCC1(C)C` [pempidine] as the compound, how does the mCherry [1] read?
**A.** 97.2%

**Q.** What about the percent effect [2] of the same compound?
**A.** -0.795%

**Q.** With `Cc1onc(-c2ccccc2Cl)c1C(=O)N[C@@H]1C(=O)N2[C@@H]1SC(C)(C)[C@@H]2C(=O)O` as the compound, how does the mCherry [1] read?
**A.** 104%

**Q.** And the percent effect [2]?
**A.** -5.23%

**Q.** What does the source list for `N.N.O=C([O-])C[O-].[Pt+2]` [Nedaplatin]?
**A.** mCherry [1]: 104%; percent effect [2]: -1.82%

**Q.** With `COc1ccc2c(c1OC)C(=O)O[C@@H]2[C@H]1c2c(cc3c(c2OC)OCO3)CCN1C` as the compound, how does the mCherry [1] read?
**A.** 117%

**Q.** What about the percent effect [2] of the same compound?
**A.** -10.7%

**Q.** `CC(C)C[C@H]1C(=O)O[C@H](Cc2ccc(N3CCOCC3)cc2)C(=O)N(C)[C@@H](CC(C)C)C(=O)O[C@H](C)C(=O)N(C)[C@@H](CC(C)C)C(=O)O[C@H](Cc2ccc(N3CCOCC3)cc2)C(=O)N(C)[C@@H](CC(C)C)C(=O)O[C@H](C)C(=O)N1C` [emodepside] was tested. Which mCherry [1] did it give?
**A.** 93.7%

**Q.** What about the percent effect [2] of the same compound?
**A.** -4.09%

**Q.** For `CN(C)[C@@H]1C(=O)C(C(N)=O)=C(O)[C@@]2(O)C(=O)C3=C(O)c4c(O)ccc(Cl)c4[C@@H](O)[C@H]3C[C@@H]12` [Demeclocycline, Declomycin], which mCherry [1] is on record?
**A.** 63.5%

**Q.** What about the percent effect [2] of the same compound?
**A.** 4.08%

**Q.** `Cc1cc(S(=O)(=O)O)c2c(C)ccc(C(C)C)cc1-2` [sodium gualenate] was tested. Which mCherry [1] did it give?
**A.** 92.5%

**Q.** What about the percent effect [2] of the same compound?
**A.** -1.18%

**Q.** `CC(=O)OCC1=C(C(=O)O)N2C(=O)[C@@H](NC(=O)CC#N)[C@H]2SC1` [cefacetrile] was tested. Which mCherry [1] did it give?
**A.** 81.4%

**Q.** And the percent effect [2]?
**A.** -4.72%

**Q.** What does the source list for `CC(=O)N[C@@H](CSC(C)=O)C(=O)O` [dacisteine]?
**A.** mCherry [1]: 89.1%; percent effect [2]: -2.43%

**Q.** What does the source list for `CCCCC[C@H](O)CC[C@@H]1[C@H]2Cc3cccc(OCC(=O)O)c3C[C@H]2C[C@H]1O` [treprostinil]?
**A.** mCherry [1]: 106%; percent effect [2]: -2.14%

**Q.** For `Nc1nc(O)c2ncn(CCC(CO)CO)c2n1` [penciclovir], which mCherry [1] is on record?
**A.** 108%

**Q.** What about the percent effect [2] of the same compound?
**A.** -4.62%

**Q.** What does the source list for `CC[C@@]1(O)C(=O)OCc2c1cc1n(c2=O)Cc2cc3c(CN(C)C)c(O)ccc3nc2-1` [Topotecan·HCl]?
**A.** mCherry [1]: 21%; percent effect [2]: -2.02%

**Q.** For `CCO[C@@H](Cc1ccc(OCCc2ccc(OS(C)(=O)=O)cc2)cc1)C(=O)O` [tesaglitazar], which mCherry [1] is on record?
**A.** 86.1%

**Q.** What about the percent effect [2] of the same compound?
**A.** -11.6%

**Q.** With `CN[C@@H]1[C@H](O[C@H]2[C@H](O[C@H]3[C@H](O)[C@@H](O)[C@H](N=C(N)N)[C@@H](O)[C@@H]3N=C(N)N)O[C@@H](C)[C@]2(O)C=O)O[C@@H](CO)[C@H](O)[C@H]1O` as the compound, how does the mCherry [1] read?
**A.** 109%

**Q.** And the percent effect [2]?
**A.** -13.4%

**Q.** Which mCherry [1] does the source give for `C[C@@H]1C[C@H]2[C@@H]3C[C@H](F)C4=CC(=O)C=C[C@]4(C)[C@H]3[C@@H](O)C[C@]2(C)[C@@]1(O)C(=O)CO` [Paramethasone] here?
**A.** 90.2%

**Q.** What about the percent effect [2] of the same compound?
**A.** -3.5%

**Q.** `N/C(CC(O)COc1cccc2ccccc12)=N/O` (stereo not drawn) [nadoxolol] was tested. Which mCherry [1] did it give?
**A.** 54.9%

**Q.** What about the percent effect [2] of the same compound?
**A.** 1.27%
